Measured values taken from PubChem BioAssay AID330 (DTP/NCI, 2004).
The list shows only some results of the screen, not a fair sample: it gathers tests that were run many times, whatever their T/C, doses with no T/C, and many T/C values between a quarter and a half above the control. Other doses and runs of a compound stand elsewhere. T/C is the treated group as % of the vehicle group. Some doses have a count of surviving animals in place of a T/C: the source holds a T/C of zero for them, seemingly a mark for toxic or unscored doses. Some doses without a T/C left all or most animals alive at the check, yet need not have been tolerated: survival well below the control is almost never listed, so the zero probably covers shortened survival too. Survivors were counted at the toxicity check, usually on the fifth day, unless a day is given; later deaths do not show. Schedules are NCI's codes, read here as Q, the interval in days (D) or hours (H), X, the number of doses. Some doses were run more than once; the values are given in rising order. Where survival is the endpoint, this PubChem deposit counts one and a half times the control or more as active, and values a quarter to a half above the control carry no call in these data; other NCI protocols may use other cut-offs. Some T/C values carry the count of animals alive at the toxicity check (mostly the fifth day); without a count, all were alive then.

Test system: P388 leukemia ip, CD2F1 mice, survival T/C
Test: NCI In Vivo Anticancer Drug Screen. Data for tumor model P388 Leukemia (intraperitoneal) in CD2F1 (CDF1) mice
Settings: T/C endpoint: median survival time, higher T/C = longer survival
[1] = dose: 120.0 mg/kg/injection, schedule: Q01DX005 (ip), vehicle: Klucel (hydroxypropylcellulose) (HPC)
[2] = dose: 240.0 mg/kg/injection, schedule: Q01DX005 (ip), vehicle: Klucel (hydroxypropylcellulose) (HPC)
[3] = dose: 240.0 mg/kg/injection, schedule: Q01DX005 (ip), vehicle: saline with Tween-80
[4] = dose: 400.0 mg/kg/injection, schedule: Q04DX002 (ip), vehicle: Klucel (hydroxypropylcellulose) (HPC)
[5] = dose: 50.0 mg/kg/injection, schedule: Q01DX009 (ip), vehicle: saline
[6] = dose: 100.0 mg/kg/injection, schedule: Q01DX009 (ip), vehicle: saline
[7] = dose: 200.0 mg/kg/injection, schedule: Q01DX009 (ip), vehicle: saline
[8] = dose: 100.0 mg/kg/injection, schedule: Q01DX005 (ip), vehicle: Klucel (hydroxypropylcellulose) (HPC)
[9] = dose: 200.0 mg/kg/injection, schedule: Q01DX005 (ip), vehicle: Klucel (hydroxypropylcellulose) (HPC)
[10] = dose: 6.25 mg/kg/injection, schedule: Q01DX005 (ip), vehicle: Klucel (hydroxypropylcellulose) (HPC)
[11] = dose: 12.5 mg/kg/injection, schedule: Q01DX005 (ip), vehicle: Klucel (hydroxypropylcellulose) (HPC)
[12] = dose: 25.0 mg/kg/injection, schedule: Q01DX005 (ip), vehicle: Klucel (hydroxypropylcellulose) (HPC)
[13] = dose: 50.0 mg/kg/injection, schedule: Q01DX005 (ip), vehicle: Klucel (hydroxypropylcellulose) (HPC)
[14] = dose: 100.0 mg/kg/injection, schedule: Q01DX005 (ip), vehicle: saline with Tween-80
[15] = dose: 200.0 mg/kg/injection, schedule: Q01DX005 (ip), vehicle: saline with Tween-80
[16] = dose: 100.0 mg/kg/injection, schedule: Q04DX002 (ip), vehicle: saline with Tween-80
[17] = dose: 100.0 mg/kg/injection, schedule: Q01DX009 (ip), vehicle: saline with Tween-80
[18] = dose: 4.0 mg/kg/injection, schedule: Q01DX009 (ip), vehicle: other
[19] = dose: 200.0 mg/kg/injection, schedule: Q01DX001 (ip), vehicle: Klucel (hydroxypropylcellulose) (HPC)
[20] = dose: 200.0 mg/kg/injection, schedule: Q01DX009 (ip), vehicle: saline with Tween-80

Cc1c2cc[n+](C)cc2c(COC2OC(CO)C(O)C2O)c2c3ccccc3n(C)c12 (stereo not drawn)
T/C (dose: 15.0 mg/kg/injection, schedule: Q01DX005 (ip), vehicle: Klucel (hydroxypropylcellulose) (HPC)): 127 % of control | T/C (dose: 30.0 mg/kg/injection, schedule: Q01DX005 (ip), vehicle: Klucel (hydroxypropylcellulose) (HPC)): 125 % of control [5 of 6 alive] | T/C (dose: 60.0 mg/kg/injection, schedule: Q01DX005 (ip), vehicle: Klucel (hydroxypropylcellulose) (HPC)): 145 % of control [4 of 6 alive] | T/C [1]: 141 % of control | survivor count [1]: 0 of 6 | survivor count [2]: 2 of 6

CN(C)CCCC1(O)c2ccccc2Sc2cc(Cl)ccc21 (stereo not drawn)
survivor count [3]: 6 of 6

Cc1nc2cc3c(=O)n(C)cnc3cc2n1Cc1ccccc1
survivor count (dose: 100.0 mg/kg/injection, schedule: Q04DX002 (ip), vehicle: Klucel (hydroxypropylcellulose) (HPC)): 2 of 6 and 5 of 6 | survivor count (dose: 200.0 mg/kg/injection, schedule: Q04DX002 (ip), vehicle: Klucel (hydroxypropylcellulose) (HPC)): 5 of 6 | survivor count [4]: 1 of 6

S=c1nc2ccccn2c(=S)n1-c1ccccn1
survivor count (dose: 200.0 mg/kg/injection, schedule: Q04DX003 (ip), vehicle: saline with Tween-80): 3 of 6 | survivor count (dose: 400.0 mg/kg/injection, schedule: Q04DX003 (ip), vehicle: saline with Tween-80): 1 of 6

CCCCCCCCCCC[CH2][Sn]([CH3])([CH3])[O]C(C)=O
survivor count [5]: 5 of 6 | survivor count [6]: 4 of 6 | survivor count [7]: 1 of 6

C=C(Cl)C(=NC(C)(C)C)N(CC)CC
survivor count [8]: 1 of 5 | survivor count [9]: 0 of 5

CCN(CC)CCNc1ccc(COC(=O)NC)c2oc3ccc(OC(=O)NC)cc3c(=O)c12
T/C [10]: 133 % of control | T/C [11]: 133 % of control | survivor count [12]: 4 of 5 and 5 of 6 | survivor count [13]: 3 of 6 | survivor count [8]: 0 of 6 | survivor count [9]: 0 of 6

C[N+](C)=NC1CCC(C(C)(C)C)CC1 (stereo not drawn)
survivor count [14]: 3 of 5 | survivor count [15]: 0 of 6

[N-]=[N+]=Nc1ccccc1C(=O)NCCNC(=O)c1ccccc1N=[N+]=[N-]
survivor count (dose: 25.0 mg/kg/injection, schedule: Q01DX005 (ip), vehicle: saline with Tween-80): 6 of 6 | survivor count (dose: 50.0 mg/kg/injection, schedule: Q01DX005 (ip), vehicle: saline with Tween-80): 6 of 6 | survivor count [14]: 6 of 6

COc1ccc2c3c1OC1C(=O)C=C[C@@]4(Br)[C@@H](C2)N(C)CC[C@]314 (stereo partly drawn)
survivor count [16]: 0 of 6 | survivor count (dose: 200.0 mg/kg/injection, schedule: Q04DX002 (ip), vehicle: saline with Tween-80): 0 of 6 | survivor count (dose: 400.0 mg/kg/injection, schedule: Q04DX002 (ip), vehicle: saline with Tween-80): 0 of 6

CC(C)NC(=O)OCc1cc(-c2ccccc2)n(C)c1-c1ccccc1
survivor count (dose: 100.0 mg/kg/injection, schedule: Q01DX009 (ip), vehicle: distilled water + Tween-80): 5 of 6 | survivor count (dose: 200.0 mg/kg/injection, schedule: Q01DX009 (ip), vehicle: distilled water + Tween-80): 0 of 6

Cn1nnnc1N/N=C(\Br)c1ccccc1
T/C [17]: 127 % of control

[Cl][Pt+2][Cl].[NH-]c1cccc(F)c1.[NH-]c1cccc(F)c1
survivor count (dose: 25.0 mg/kg/injection, schedule: Q01DX009 (ip), vehicle: Klucel (hydroxypropylcellulose) (HPC)): 1 of 6 and 3 of 6 | survivor count (dose: 50.0 mg/kg/injection, schedule: Q01DX009 (ip), vehicle: Klucel (hydroxypropylcellulose) (HPC)): 1 of 6 | survivor count (dose: 100.0 mg/kg/injection, schedule: Q01DX009 (ip), vehicle: Klucel (hydroxypropylcellulose) (HPC)): 0 of 6

CCCCN(CCCC)C(=N)OC
survivor count (dose: 100.0 mg/kg/injection, schedule: Q01DX005 (ip), vehicle: saline): 1 of 5 | survivor count (dose: 200.0 mg/kg/injection, schedule: Q01DX005 (ip), vehicle: saline): 0 of 5

O=c1[nH]nc(-c2ccc(Cl)cc2)c2c1[nH]c1ccccc12
survivor count [3]: 3 of 6

N=C(N)SC12CC3CC(CC(C3)C1)C2
survivor count (dose: 120.0 mg/kg/injection, schedule: Q01DX005 (ip), vehicle: saline with Tween-80): 0 of 6 | survivor count [3]: 0 of 6

CCC/C(=N\N=C(N)N)c1ccc(Cl)cc1
survivor count (dose: 50.0 mg/kg/injection, schedule: Q04DX002 (ip), vehicle: saline with Tween-80): 0 of 6 | survivor count [16]: 1 of 6

CC(C)CC1N=C(NN=C2CCCCC2)SP1(=O)NNc1ncccn1 (stereo not drawn)
survivor count [2]: 0 of 6

C1=C(c2ccccc2)Oc2ccccc2[P+]1(c1ccccc1)c1ccccc1
survivor count [10]: 4 of 5 | survivor count [11]: 2 of 5 | survivor count [12]: 0 of 5 | survivor count [13]: 0 of 5 | survivor count [8]: 0 of 5 | survivor count [9]: 0 of 5

CCCCCCCCCCCC(=O)NCC(=O)NC1C(C)OC(Nc2ncnc3nc[nH]c23)C(O)C1O (stereo not drawn)
T/C (dose: 0.25 mg/kg/injection, schedule: Q01DX009 (ip), vehicle: other): 128 % of control | T/C (dose: 0.5 mg/kg/injection, schedule: Q01DX009 (ip), vehicle: other): 133 % of control | T/C (dose: 1.0 mg/kg/injection, schedule: Q01DX009 (ip), vehicle: other): 132 and 142 % of control | T/C [18]: 130 % of control | survivor count [18]: 5 of 6 | survivor count (dose: 8.0 mg/kg/injection, schedule: Q01DX009 (ip), vehicle: other): 4 of 6

CC1=CC(=Nc2ccc(N(CCCl)CCCl)cc2)C(C)=C(C)C1=O
T/C [19]: 126 and 144 % of control | T/C (dose: 400.0 mg/kg/injection, schedule: Q01DX001 (ip), vehicle: Klucel (hydroxypropylcellulose) (HPC)): 131 and 141 % of control

COC1OC(COS(=O)(=O)c2ccc(C)cc2)C2OC(C)(C)OC12 (stereo not drawn)
survivor count [9]: 5 of 5

CC1(C)N=C(N)N=C(N)N1c1ccc(CCc2ccccc2)cc1
T/C [5]: 127 % of control | survivor count [6]: 2 of 6 | survivor count (dose: 150.0 mg/kg/injection, schedule: Q04DX003 (ip), vehicle: saline with Tween-80): 0 of 6 | survivor count [7]: 0 of 6 | survivor count (dose: 400.0 mg/kg/injection, schedule: Q04DX003 (ip), vehicle: saline): 2 of 6

N#CC(C#N)C1C=C/C(=N\O)C1 (stereo not drawn)
survivor count [17]: 2 of 6 | survivor count [20]: 0 of 6

CCN(CC)CCNc1ccc(C)c2sc3ccc(OC)cc3c(=O)c12
T/C [17]: 145 and 147 % of control [5 of 6 alive] | survivor count [20]: 6 of 6

CCOc1cc(/C=N/NC(=O)N(c2ccccc2)c2ccccc2)ccc1O
survivor count [15]: 6 of 6

CCCC(NC(=O)CNC(=O)OCc1ccccc1)C(=O)O (stereo not drawn)
survivor count [9]: 2 of 6

Cc1cc(C)c(OP(=S)(Oc2c(C)cc(C)cc2C)Oc2c(C)cc(C)cc2C)c(C)c1
survivor count [4]: 6 of 6

C[CH2][Sn][CH2]C.O=C(CC(=O)c1ccccc1)c1ccccc1.O=C(CC(=O)c1ccccc1)c1ccccc1
survivor count [19]: 6 of 6
